The list shows only some results of the screen, not a fair sample: it gathers tests that were run many times, whatever their T/C, doses with no T/C, and many T/C values between a quarter and a half above the control. Other doses and runs of a compound stand elsewhere. T/C: endpoint of the treated group in % of that of the vehicle group. Schedules are NCI's codes, taken here to give the interval after Q, in days (D) or hours (H), and the number of doses after X. Some entries give survivors of the animals treated and no T/C: the source holds a T/C of zero for them, seemingly a mark for toxic or unscored doses. Counts of survivors are from the toxicity check (mostly the fifth day) where no day follows; animals may have died later.
Test system: BDF1 mice, colon carcinoma 38 sc, T/C %
Test: NCI In Vivo Anticancer Drug Screen. Data for tumor model Colon Carcinoma 38 (subcutaneous) in B6D2F1 (BDF1) mice
Settings: T/C endpoint: median tumor weight (est.), higher T/C = larger tumour; for T/C: evaluated on day 20
How it was run: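 Transplantable tumor in mice; compound-treated vs vehicle-dosed controls. Measured survival or tumor size; value = T ÷ C.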

[1] = dose: 25.0 mg/kg/injection, schedule: Q07DX002 (ip), vehicle: saline with Tween-80
[2] = dose: 400.0 mg/kg/injection, schedule: Q07DX002 (ip), vehicle: saline with Tween-80

SMILES: CC1=C[S+](c2ccccc2)c2cccc3cc4ccccc4c1c23 (centres undefined)
- T/C (dose: 0.12 mg/kg/injection, schedule: Q07DX002 (ip), vehicle: saline with Tween-80): 140 % of control
- T/C (dose: 0.25 mg/kg/injection, schedule: Q07DX002 (ip), vehicle: saline with Tween-80): 126 % of control

SMILES: C[C@@]1(CO)[C@H](O)CC[C@@]2(C)[C@H]1CC[C@H]1C[C@@H]3C[C@@]12CC[C@@]3(O)COC(=O)CN
- T/C (dose: 50.0 micrograms/kg/injection, schedule: Q07DX002 (ip), vehicle: saline + alcohol): 143 % of control
- T/C (dose: 200.0 micrograms/kg/injection, schedule: Q07DX002 (ip), vehicle: saline + alcohol): 129 % of control
- T/C (dose: 400.0 micrograms/kg/injection, schedule: Q07DX002 (ip), vehicle: saline + alcohol): 132 % of control

SMILES: CCOC1=Cc2c(oc3c(C(C)(C)C)cc(OCC)cc23)OC(C(C)(C)C)=C1
- T/C (dose: 12.5 mg/kg/injection, schedule: Q07DX002 (ip), vehicle: saline with Tween-80): 143 % of control

SMILES: COc1cc2c(cc1O)N=C[C@@H]1CCC(O)N1C2=O (mixture of isomers)
- survivor count (dose: 16.0 mg/kg/injection, schedule: Q07DX002 (ip), vehicle: saline): 6 of 10 on day 20
- survivor count (dose: 32.0 mg/kg/injection, schedule: Q07DX002 (ip), vehicle: saline): 0 of 10 on day 20

SMILES: COC1/C=C\C=C(/C)C(=O)NC2=CC(=O)C=C(C2=O)C(OC)C(C)CC(OC)C(OC)C(C)/C=C(/C)C1OC(N)=O (centres undefined)
- T/C (dose: 0.37 mg/kg/injection, schedule: Q07DX002 (ip), vehicle: Klucel (hydroxypropylcellulose) (HPC)): 129 % of control
- T/C (dose: 0.75 mg/kg/injection, schedule: Q07DX002 (ip), vehicle: Klucel (hydroxypropylcellulose) (HPC)): 130 % of control
- T/C (dose: 3.0 mg/kg/injection, schedule: Q07DX002 (ip), vehicle: Klucel (hydroxypropylcellulose) (HPC)): 142 % of control

SMILES: C/C=C/C1=CC(=O)C(O)C1O (centres undefined)
- T/C (dose: 45.0 mg/kg/injection, schedule: Q07DX002 (ip), vehicle: water): 130 % of control

SMILES: c1csc(C[N+]23CN4CN(CN(C4)C2)C3)c1
- survivor count (dose: 800.0 mg/kg/injection, schedule: Q07DX002 (ip), vehicle: saline): 0 of 10 on day 20

SMILES: CN(C)CCN1C(=O)c2cccc3cc([N+](=O)[O-])cc(c23)C1=O
- survivor count [1]: 2 of 10 on day 20

SMILES: Cc1cn(C2CC(F)C(CO)O2)c(=O)[nH]c1=O (centres undefined)
- T/C (dose: 25.0 mg/kg/injection, schedule: Q01DX001 (ip), vehicle: Klucel (hydroxypropylcellulose) (HPC)): 129 % of control

SMILES: O=NN(CCCl)C(=O)Oc1ccc(OC(=O)N(CCCl)N=O)cc1
- survivor count (dose: 100.0 mg/kg/injection, schedule: Q07DX002 (ip), vehicle: Klucel (hydroxypropylcellulose) (HPC)): 4 of 10 on day 20

SMILES: CCC(CC)COC(=O)c1ccccc1C(=O)OCC(CC)CC
- T/C [1]: 125 % of control
- T/C (dose: 50.0 mg/kg/injection, schedule: Q07DX002 (ip), vehicle: saline with Tween-80): 147 % of control
- T/C [2]: 129 % of control

SMILES: CC(=O)C1=C(O)C2(O)C(=O)c3c(c(C)c4ccc(C)c(O)c4c3O)CC2C(N)C1=O (centres undefined)
- survivor count (dose: 120.0 mg/kg/injection, schedule: Q07DX002 (ip), vehicle: saline + alcohol): 3 of 10 on day 20
- survivor count (dose: 240.0 mg/kg/injection, schedule: Q07DX002 (ip), vehicle: saline + alcohol): 0 of 10 on day 20

SMILES: O=C(CCCN1CCC(O)(c2cccc(C(F)(F)F)c2)CC1)c1ccc(F)cc1
- T/C (dose: 50.0 mg/kg/injection, schedule: Q07DX003 (ip), vehicle: Klucel (hydroxypropylcellulose) (HPC)): 127 % of control

SMILES: O=S(=O)(CCl)OCCCl
- survivor count (dose: 200.0 mg/kg/injection, schedule: Q07DX002 (ip), vehicle: saline with Tween-80): 0 of 10 on day 20
- survivor count [2]: 0 of 10 on day 20

— PubChem BioAssay AID212 (DTP/NCI, 2004)
